Consider one substance from PMC6561926.

By UniProt entry, the sequences of proteins in these tests, tags left out.
UniProt Q15910: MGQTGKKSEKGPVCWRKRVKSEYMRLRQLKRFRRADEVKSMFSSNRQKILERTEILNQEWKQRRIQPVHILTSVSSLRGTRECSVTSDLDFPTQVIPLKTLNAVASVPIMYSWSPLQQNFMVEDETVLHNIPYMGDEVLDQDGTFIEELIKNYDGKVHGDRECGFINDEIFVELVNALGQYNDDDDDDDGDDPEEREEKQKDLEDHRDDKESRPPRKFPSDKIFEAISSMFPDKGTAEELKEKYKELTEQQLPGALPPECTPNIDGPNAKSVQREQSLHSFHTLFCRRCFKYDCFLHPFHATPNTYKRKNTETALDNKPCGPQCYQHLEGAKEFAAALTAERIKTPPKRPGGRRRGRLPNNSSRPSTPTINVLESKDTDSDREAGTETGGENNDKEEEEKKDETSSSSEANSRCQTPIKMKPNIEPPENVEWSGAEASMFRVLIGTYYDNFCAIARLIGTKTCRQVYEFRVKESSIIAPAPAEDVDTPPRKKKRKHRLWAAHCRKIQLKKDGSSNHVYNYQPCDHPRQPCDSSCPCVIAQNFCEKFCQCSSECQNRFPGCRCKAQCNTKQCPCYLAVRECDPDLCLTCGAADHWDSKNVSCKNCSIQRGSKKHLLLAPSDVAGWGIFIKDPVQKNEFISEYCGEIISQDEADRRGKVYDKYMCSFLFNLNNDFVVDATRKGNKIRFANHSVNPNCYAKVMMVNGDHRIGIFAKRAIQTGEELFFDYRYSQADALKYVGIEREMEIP
UniProt P40763: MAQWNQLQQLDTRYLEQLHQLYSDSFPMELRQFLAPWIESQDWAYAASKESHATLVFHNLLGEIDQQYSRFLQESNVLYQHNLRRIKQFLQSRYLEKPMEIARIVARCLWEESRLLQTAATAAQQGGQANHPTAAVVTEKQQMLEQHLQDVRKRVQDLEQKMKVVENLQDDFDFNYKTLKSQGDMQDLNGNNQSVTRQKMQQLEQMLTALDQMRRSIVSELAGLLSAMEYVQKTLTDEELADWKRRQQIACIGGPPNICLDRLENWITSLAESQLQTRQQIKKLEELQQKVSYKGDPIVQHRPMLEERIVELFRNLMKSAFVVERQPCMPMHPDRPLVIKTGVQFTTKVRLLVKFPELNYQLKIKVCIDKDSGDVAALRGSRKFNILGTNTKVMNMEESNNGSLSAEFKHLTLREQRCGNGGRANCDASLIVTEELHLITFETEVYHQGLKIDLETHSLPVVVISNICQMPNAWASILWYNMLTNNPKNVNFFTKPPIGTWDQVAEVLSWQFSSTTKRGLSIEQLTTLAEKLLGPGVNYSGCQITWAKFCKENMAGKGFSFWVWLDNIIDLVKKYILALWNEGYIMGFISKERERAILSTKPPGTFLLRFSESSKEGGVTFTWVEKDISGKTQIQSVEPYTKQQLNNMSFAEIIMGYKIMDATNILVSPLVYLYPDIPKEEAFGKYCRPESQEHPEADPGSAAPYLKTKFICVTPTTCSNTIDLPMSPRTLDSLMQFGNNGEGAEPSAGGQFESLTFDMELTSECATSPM

The experiment deals with Enhancer of Zeste Homolog 2 (EZH2) (human (endogenous in C4-2 and LNCaP)) (UniProt Q15910). The experiment can be described thus: co-IP; endogenous proteins in C4-2 cell lysate; EZH2 antibody used to pull down the EZH2 complex, partners detected by WB; cells with/without 10 uM Enz for 4-5 days, with/without overexpression of lncRNA-p21 (pWPI), sh-lncRNA-p21 or AR knock-down.

Results are given in words; binding and its absence hold for the method and conditions named. In cells and extracts the contact can be indirect. Some results given as binding are weak or reduced against the parent protein; the word gives no strength.

Consider STAT3 (from UniProt P40763 1-770), for which the binding result is on record as “binds”.
